Test results from PubChem BioAssay AID1347423 (Functional Genomics Laboratory (NCATS/FGL), 2020).
In all, about 52,000 sequences went through this assay and about 210 (0.4%) were called active.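 The calls were made as follows: active = gene whose silencing raises cell survival under the drug, median off-target-corrected z-score across its silencing RNAs 2 or more; inactive = the rest.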 Some of the results follow.

Experiment: Resistance to Poly (ADP-Ribose) Polymerase inhibitor: Gene Identification via Genome-wide siRNA Screen
Conditions: mouse BRCA2 R2336H ES cells, olaparib, CellTiter-Glo viability; hits give high values
Outline: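 Genome-wide siRNA screen (3 siRNAs/gene, 20 nM) in mouse ES cells carrying hypomorphic BRCA2 R2336H; olaparib 500 nM added 48 h post-transfection, CellTiter-Glo viability 72 h later. Normalized to plate-median negative control; MAD z-scores, gene median, seed-adjusted.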

Sequence	z-score
GCAUCUCCCUUAUGUCUGUTT against Nubp2	inactive: -1.39
GGCUUAUGUGGUCCUUGGCTT against Banf1	inactive: -0.355
GCCAGUACACUCCACCUGUTT against 1200008O12Rik	inactive: 0.654
CCUGUCUUUAGUGGACUUUTT against Olfr1453	inactive: -1.85
GGAUUUUGAAGCCAGUUGCTT against Ubash3a	inactive: -0.419
GGACUAUAUUCUUAACUCATT against F11r	inactive: -1.29
GCGAAGCGUGCUGCUAAGATT against D10Ertd718e	inactive: 1.21
GGAAGUCAACCGAGUCUUCTT against LOC434484	inactive: -2.13
GGGCAUUGCCAGGAAUUAUTT against Lrp1b	inactive: 0.0608
GCUCGCCAAUAUGUAUAUGTT against ORF34	inactive: -0.0627
CGUGGUCUUCACGAUUGGATT against Pde4c	inactive: 0.924
CCAUUGAGGGAAUGAUUAATT against Acvr1b	inactive: -0.164
GGACAAAAAAGAAGGUGAATT against 8430417A20Rik	inactive: -0.559
CGCUGCUGGUUCAUAUUGGTT against Zdhhc25	inactive: -2.52
GCCAGGAUUAUCUUGAGAATT against Prpf39	inactive: -0.069
GGUACUGGAUGAGCUGAGGTT against Letm1	inactive: 0.336
GGAGUGCUUGAAGAACAUATT against Kcnk7	inactive: 0.459
GCUGGGUCAUUUAACAAGCTT against 1300002F13Rik	inactive: -0.4
CGUGGAAGAAAUAAUUAGGTT against C230052I12Rik	inactive: 0.24
GCAUUUGGAAUUUACCAUGTT against 1810073M12Rik	inactive: 1.29
CCAUUCCAGUUAUGUCAAUTT against Pus3	inactive: -0.401
GGACAAAAGACUUGAAUUUTT against Alox15	inactive: 0.668
GGUAUUACUGAAAAGCACCTT against 2310008H04Rik	inactive: -1.36
CGACUGGAAUCUAAUAACUTT against Fgf2	inactive: 0.0702
GGUAUUCCCUAGAGAUAAATT against Olfr1241	inactive: -0.111
CGAAACACUCAAGGUUGUATT against Creb3l2	inactive: 0.177

Sequence	z-score
GCAUGACAGGAAACUCUCUTT against Olfr1308	inactive: 0.0733
GGGUGUAGCAUUGUCACAGTT against Olfr1133	inactive: -0.186
GGAACCUUUGAGAAUAUGATT against Spats2	inactive: 0.149
GCUAUAGGAACCUUCAGAGTT against Dtr	inactive: 0.872
GGAGUACACGUUCAUCAUCTT against Clstn2	inactive: 0.743
GGACUUUCGUCGUACUCGUTT against Terf1	inactive: 0.655
GGCCUGCUUUGUUCUGAAUTT against Olfr846	inactive: 0.0902
CCUGCUUUCUCUAUACCUATT against BC030867	inactive: -2.38
CCUAAUUAUAACCCUGACCTT against Olfr845	inactive: 0.554
GGAUUUGACCGGCUAAUACTT against 0610009C03Rik	inactive: -2.05
GCGAUUGUCCAAGAAUUCCTT against Crcp	inactive: 1.36
UCACCUACAGCGGAUCUCATT against Oxt	inactive: 0.294
CCAACACGUUGCACAGAGUTT against A830073O21Rik	inactive: -1.75
CGGACCUACAAACAAUAACTT against Ccl9	inactive: 0.0303
CCAUUGUGAUCAAGAUAAATT against Cggbp1	inactive: 0.591
CGUUCCAUCUCUAACUGGATT against Rhox3	inactive: 0.271
GGAUCUACAUUGCUAAAGUTT against Dbil5	inactive: 0.918
CCUGAGAUGAUAAUCCUGCTT against Sprr2i	inactive: 0.288
GGUUAUCUUGAAUAAAGCUTT against Zfp346	inactive: 1.79
GGAAAAAGAUUGAGGAAGUTT against Uhrf1	inactive: -0.647
UCGGCCAUGUAGUAUGGGATT against Xlr3a	inactive: -0.822
GGACAUUAACGAGCUGAACTT against Ube2m	inactive: 0.791
GCCCUUCGAAUGUGUAAGGTT against LOC328644	inactive: 0.0887
GGAGCUAGAGUUUUCACUATT against 2500003M10Rik	inactive: 0.943
CCGUAUAAGUUUACGUUUATT against Tm9sf2	inactive: 0.118
GGCUAACCAGAGGAAAAACTT against Rph3a	inactive: -0.186

Pulled one by one from above, four records:
Sequence	z-score
GCCCUUCGAAUGUGUAAGGTT against LOC328644	inactive: 0.0887
GGUACUGGAUGAGCUGAGGTT against Letm1	inactive: 0.336
GCCAGGAUUAUCUUGAGAATT against Prpf39	inactive: -0.069
GGAAGUCAACCGAGUCUUCTT against LOC434484	inactive: -2.13

Later entries:

Sequence	z-score
CCAAGUAAGGACUAUAGAGTT against Gpatc2	inactive: 0.312
GGGAAGUUCAUAUUGAUCCTT against Gsdm1	inactive: -0.71
GCCUGAAUCCGCCACAUUGTT against Cx3cl1	inactive: -2.13
GGUAACCUUGGAGAAGGUCTT against Mapkbp1	inactive: 0.348
GGUGGAUUCUUUCUCCUUCTT against 4833415N24Rik	inactive: 1.65
GGGCAAUCCUGAAUUGGUUTT against Atp2b4	inactive: -0.698
GGGUUUCUGGGACUUCACCTT against Bgn	inactive: 0.372
GGAGUUCAAAGAUGCAAUUTT against Zfyve27	inactive: 1.25
GGCAACAAAUGCUGUGUAATT against 2610301B20Rik	inactive: -1.09
CCAAGUAUGCUAGCAUGAUTT against Ndufa3	inactive: -1.7
GGUACACAGUCAUAAUGAGTT against Olfr975	inactive: 0.161
CGACAUAUCCUUCUUUUCUTT against Ppic	inactive: 0.542
GCUUGCUCACUCUAGUACUTT against Olfr937	inactive: 1.95
UACCUUUAGCGCGCUUCCUTT against Oxt	inactive: -0.109
GGAAUGGAGUUUGGUUUUGTT against Extl1	inactive: 3.43
GCUUAAGUGCAGGGACCUATT against 4930519N13Rik	inactive: 0.873
GGUCUCAUAGAGUGUUACUTT against Anapc7	inactive: 0.289
GCUUAGCUGUUAUGUUUUUTT against Atp6ap1	inactive: -0.399
GGUGAUUAUUUUGUCAGCCTT against Olfr1228	inactive: 0.681
CCAGUGGUCAUUCUUGUCUTT against Olfr1076	inactive: 0.844
GGGUUCUGUGUAAAUGUAUTT against Gzma	inactive: 0.291
CCUGAUUCAAAUGCUCUCCTT against BC034204	inactive: 0.0244
GGUCAAUUGCACCUGGAACTT against Snx19	inactive: -0.832
CGAAGAAAACCAUAAGGACTT against Bdnf	inactive: -0.738
GGACUGGUUUGACUUUAAATT against Oasl1	inactive: -1.33
GGCUCAGCACUUUCCUAAUTT against Ifnab	inactive: -0.0748

Sequence	z-score
GGAUACUUGAUGAACUUUGTT against Tmem16b	inactive: -1.39
GGCUGUAGUUCUCACUGUGTT against Olfr902	inactive: 0.822
GGCAGUUUGGUUUUUUUUGTT against Galnt7	inactive: 1.76
CGACAAACUACAUAGCAGATT against Brms1	inactive: 0.0865
CCGUUUUGUCUGAAUUCCCTT against 4930515G01Rik	inactive: -2.55
GGCUAAGACCAAAACUUUATT against Cyp4f13	inactive: 0.252
GGAAUGCAUCACAAAACUUTT against Lancl2	inactive: 0.362
GCCUCACUCAGCAAAAGGATT against 2210019E14Rik	inactive: -2.52
CGCGGUCAUCUUUGUCUUCTT against Centg2	inactive: -0.317
GCCAUCUACUUUGUUAUAGTT against Kcnk4	inactive: 1.46
GGAAAAGAAAGACUUUUGCTT against 5832424M12	inactive: 0.787
GGACGGGCUUCUAGUUGAATT against V1rh2	inactive: -0.288
ACUGGCCGGGAUUACAGAUTT against Ang3	inactive: -0.442
GCUUGCUCAGGGAUUUUUATT against Rb1cc1	inactive: 0.265
GGAAAGAAGCCAAAGAAAUTT against Spata4	inactive: -1.17
CCCGAGAAUACACCAUCAATT against Rpl31	inactive: -2.59
GGACCAGAGGAAGAUUCCCTT against 1700020D05Rik	inactive: 0.463
GGUGUAAGACGUGUGGAGATT against 2900016D05Rik	inactive: 1.45
CGAGGAUUACAGAGGAAACTT against Dutp	inactive: -0.409
GGACAAGGCUGCUACUUCATT against Pou6f2	inactive: -0.217
GGAAAGUUGUGAACUCUAATT against Olfr1157	inactive: -1.77
GGAAGUGUGGACGAAUAAATT against BC019561	inactive: -1.17
GGUGCUCCCUGCAUACUAUTT against Ngp	inactive: 0.177
GGACAUCCAGACCAAUGUCTT against Psmd8	inactive: -2.52
GGAUGGAGAUUAUGAAGAGTT against Pcsk9	inactive: 0.613
CCGUCUAUGUAUCGGUGUUTT against Gpr10	inactive: 0.404
